Test results taken from doi:10.1101/843383.
These are yes or no findings as the source states them, for the method shown. In cells and extracts the contact can be indirect. A result given as binding can be weak or reduced; the word gives no strength. For part of these data: Sequences can lack the tags named with a protein. Values belong to the molecule of their own block, whether it stands above or below them.

Sequences of proteins named here, by UniProt entry; tags and fusion partners are left off. A change or cut given only in a name is not applied to a line headed by its entry.
UniProt P07548: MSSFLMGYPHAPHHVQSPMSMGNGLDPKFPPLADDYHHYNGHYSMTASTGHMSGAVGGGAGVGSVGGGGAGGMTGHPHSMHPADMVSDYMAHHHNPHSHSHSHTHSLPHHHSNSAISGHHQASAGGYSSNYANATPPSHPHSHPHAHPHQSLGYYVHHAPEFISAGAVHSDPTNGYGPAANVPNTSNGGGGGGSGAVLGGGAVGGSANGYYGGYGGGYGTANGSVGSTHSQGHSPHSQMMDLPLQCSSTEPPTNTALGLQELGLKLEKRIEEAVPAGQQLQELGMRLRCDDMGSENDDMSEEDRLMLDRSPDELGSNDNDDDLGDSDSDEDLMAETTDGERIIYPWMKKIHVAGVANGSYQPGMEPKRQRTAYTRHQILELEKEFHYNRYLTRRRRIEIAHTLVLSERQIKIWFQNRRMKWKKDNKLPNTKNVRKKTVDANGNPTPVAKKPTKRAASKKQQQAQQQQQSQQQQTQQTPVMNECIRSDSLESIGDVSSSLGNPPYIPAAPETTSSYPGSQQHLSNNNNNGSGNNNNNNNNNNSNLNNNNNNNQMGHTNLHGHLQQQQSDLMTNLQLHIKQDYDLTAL
UniProt Q9TVM2: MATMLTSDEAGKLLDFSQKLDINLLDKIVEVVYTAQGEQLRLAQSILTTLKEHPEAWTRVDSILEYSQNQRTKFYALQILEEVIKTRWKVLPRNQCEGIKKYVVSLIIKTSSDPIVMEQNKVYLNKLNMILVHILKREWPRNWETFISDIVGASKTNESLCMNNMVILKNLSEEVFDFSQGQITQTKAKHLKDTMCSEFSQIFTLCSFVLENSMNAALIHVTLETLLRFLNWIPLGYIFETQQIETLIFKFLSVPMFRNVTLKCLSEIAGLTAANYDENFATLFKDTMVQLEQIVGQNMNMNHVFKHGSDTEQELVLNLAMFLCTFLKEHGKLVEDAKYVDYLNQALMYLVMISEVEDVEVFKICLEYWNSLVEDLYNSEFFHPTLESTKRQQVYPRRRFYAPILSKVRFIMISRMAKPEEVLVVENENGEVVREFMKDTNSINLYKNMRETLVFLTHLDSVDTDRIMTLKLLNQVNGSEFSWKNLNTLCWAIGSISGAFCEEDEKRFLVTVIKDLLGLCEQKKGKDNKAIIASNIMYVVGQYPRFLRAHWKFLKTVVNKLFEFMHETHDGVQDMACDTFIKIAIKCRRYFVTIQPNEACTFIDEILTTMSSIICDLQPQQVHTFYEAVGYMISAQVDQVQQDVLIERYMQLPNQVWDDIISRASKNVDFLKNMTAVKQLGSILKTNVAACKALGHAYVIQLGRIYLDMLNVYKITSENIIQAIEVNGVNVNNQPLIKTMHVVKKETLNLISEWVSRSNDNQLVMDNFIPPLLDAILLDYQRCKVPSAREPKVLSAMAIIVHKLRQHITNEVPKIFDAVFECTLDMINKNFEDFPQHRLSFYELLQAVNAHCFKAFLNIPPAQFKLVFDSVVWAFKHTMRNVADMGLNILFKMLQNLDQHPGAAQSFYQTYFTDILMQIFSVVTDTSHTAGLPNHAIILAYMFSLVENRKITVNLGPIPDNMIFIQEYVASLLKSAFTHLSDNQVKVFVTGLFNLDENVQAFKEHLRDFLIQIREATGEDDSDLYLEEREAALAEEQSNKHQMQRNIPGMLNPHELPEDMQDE

Experiments:
[1] = biological target: VN-Dfd^HX (HX-mutated Deformed fused to the N-terminal fragment of Venus) (Drosophila) (UniProt P07548); experiment: split reporter
[2] = biological target: GST-Ubx NES-mutated (Drosophila); experiment: pull-down
[3] = biological target: GST-Ubx wild type (Drosophila); experiment: pull-down

binding [1]: binds
Molecule: VC-Emb (Embargoed fused to the C-terminal fragment of Venus), in embryos (from UniProt Q9TVM2 1-1063)

binding [2]: binds
binding [3]: binds
B1: Flag-Exd (protein, UniProt P40427 1-376)
chain: MEDPNRMLAHTGGMMAPQGYGLSGQDDGQNAGSENEVRKQKDIGEILQQIMSISEQSLDEAQARKHTLNCHRMKPALFSVLCEIKEKTVLSIRNTQEEEPPDPQLMRLDNMLIAEGVAGPEKGGGGAAAASAAAASQGGSLSIDGADNAIEHSDYRAKLAQIRQIYHQELEKYEQACNEFTTHVMNLLREQSRTRPITPKEIERMVQIIHKKFSSIQMQLKQSTCEAVMILRSRFLDARRKRRNFSKQASEILNEYFYSHLSNPYPSEEAKEELARKCGITVSQVSNWFGNKRIRYKKNIGKAQEEANLYAAKKAAGASPYSMAGPPSGTTTPMMSPAPPQDSMGYPMGSGGYDQQQPYDNSMGGYDPNLHQDLSP
